Literature values, collected in patent US9925277B2, “Polynucleotide compositions containing amino acids” (ModernaTX, Inc., priority 2013, dated 2018).
Structures can show the parent of a compound that is named as a salt. At least one structure is not confirmed: it was looked up by name or label, or the drawing left a doubt.

Tested on: retinal neovascularization
Details: mice

Structure (SMILES) | development of retinal neovascularization
CN(CCOc1ccc(CC2SC(=O)NC2=O)cc1)c1ccccn1 (centres unmarked) [rosiglitazone maleate] | inhibit the development of retinal neovascularization
Cc1c(C)c2c(c(C)c1O)CCC(C)(COc1ccc(CC3SC(=O)NC3=O)cc1)O2 (centres unmarked) [troglitazone] | inhibit the development of retinal neovascularization
